{
  "source": "patent US6498155B1",
  "about": "“Methods of treating thrombocytopenia” (SmithKline Beecham Corporation, priority 1998, dated 2002)",
  "molecular_target": "T1, TPO receptor (Homo sapiens, UniProt P40238)",
  "T1 construct": "expressed in transfected cells; host or cells: murine BaF3 cells",
  "T1 sequence (P40238 26-635)": "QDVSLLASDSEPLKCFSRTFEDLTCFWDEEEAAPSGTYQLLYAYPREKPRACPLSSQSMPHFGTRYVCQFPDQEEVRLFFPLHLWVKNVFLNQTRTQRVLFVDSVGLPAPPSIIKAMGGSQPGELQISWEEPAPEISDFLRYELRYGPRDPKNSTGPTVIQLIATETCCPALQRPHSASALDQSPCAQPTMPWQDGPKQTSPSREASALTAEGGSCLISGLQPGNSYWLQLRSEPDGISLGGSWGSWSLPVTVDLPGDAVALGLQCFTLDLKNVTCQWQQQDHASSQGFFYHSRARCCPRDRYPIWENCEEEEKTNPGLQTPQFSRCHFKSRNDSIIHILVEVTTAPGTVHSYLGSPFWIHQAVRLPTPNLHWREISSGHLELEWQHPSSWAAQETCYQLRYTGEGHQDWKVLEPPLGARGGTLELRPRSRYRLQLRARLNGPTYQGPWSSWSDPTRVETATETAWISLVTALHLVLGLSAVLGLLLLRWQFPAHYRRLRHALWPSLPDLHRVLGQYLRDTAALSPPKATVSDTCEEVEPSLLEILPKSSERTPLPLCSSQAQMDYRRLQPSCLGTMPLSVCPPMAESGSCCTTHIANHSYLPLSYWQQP",
  "assay": "Luciferase assay in TPO-responsive BaF3 cell line",
  "type": "cell-based",
  "conditions": "concentration range of 10 and 100 uM, BaF3 cells",
  "note": "Some results were stated once for a whole list of compounds, not compound by compound. At least one compound was matched to its structure with a doubt left.",
  "data": [
    {"smiles": "Br.Br.Br.Br.Br.Br.Br.Br.O.O.c1cc(CN2CCCNCCNCCCNCC2)cc(CN2CCCNCCNCCCNCC2)c1", "note": "[Example 2, 1,1′-[1,3-Phenylenebis(methylene)]bis[1,4,8,11-tetraazacyclotetradecane]octahydrobromide Dihydrate]", "values": [
      {"measurement": "activation, % of control (control is the maximal response to TPO)", "result": "over 30%"}
    ]}
  ]
}
